Sequences of proteins named here, by UniProt entry; tags and fusion partners are left off. A change or cut given only in a name is not applied to a line headed by its entry.
UniProt Q8WNY2: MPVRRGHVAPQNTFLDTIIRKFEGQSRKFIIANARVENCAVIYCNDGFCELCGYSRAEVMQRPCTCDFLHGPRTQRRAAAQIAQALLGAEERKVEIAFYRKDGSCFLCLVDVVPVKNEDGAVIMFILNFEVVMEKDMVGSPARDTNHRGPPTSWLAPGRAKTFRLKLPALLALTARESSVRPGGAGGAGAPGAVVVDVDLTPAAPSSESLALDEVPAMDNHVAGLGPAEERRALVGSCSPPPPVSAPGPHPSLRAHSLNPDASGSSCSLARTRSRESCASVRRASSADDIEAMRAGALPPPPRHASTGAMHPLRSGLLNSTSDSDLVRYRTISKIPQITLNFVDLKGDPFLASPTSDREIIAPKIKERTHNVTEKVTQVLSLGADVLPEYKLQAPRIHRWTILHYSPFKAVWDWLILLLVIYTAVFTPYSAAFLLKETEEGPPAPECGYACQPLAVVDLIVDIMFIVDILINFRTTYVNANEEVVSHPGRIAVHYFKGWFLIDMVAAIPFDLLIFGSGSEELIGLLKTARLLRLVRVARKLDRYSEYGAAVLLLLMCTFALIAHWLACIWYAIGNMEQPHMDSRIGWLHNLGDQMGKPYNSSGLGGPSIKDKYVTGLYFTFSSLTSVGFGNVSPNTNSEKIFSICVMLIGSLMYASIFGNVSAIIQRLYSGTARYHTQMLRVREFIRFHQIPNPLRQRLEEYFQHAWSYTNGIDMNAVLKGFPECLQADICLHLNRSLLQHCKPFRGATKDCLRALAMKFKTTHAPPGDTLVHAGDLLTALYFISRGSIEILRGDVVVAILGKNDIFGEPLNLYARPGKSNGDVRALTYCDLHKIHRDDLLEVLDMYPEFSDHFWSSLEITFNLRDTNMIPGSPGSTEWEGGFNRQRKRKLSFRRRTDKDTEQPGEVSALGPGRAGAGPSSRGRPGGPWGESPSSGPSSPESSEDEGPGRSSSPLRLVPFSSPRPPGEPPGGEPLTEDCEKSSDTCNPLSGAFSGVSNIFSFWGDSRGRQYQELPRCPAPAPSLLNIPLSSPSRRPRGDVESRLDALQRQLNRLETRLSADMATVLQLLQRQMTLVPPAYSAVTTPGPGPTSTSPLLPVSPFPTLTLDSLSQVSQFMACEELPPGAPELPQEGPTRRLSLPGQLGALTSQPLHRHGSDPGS

According to US20020183241A1, “Methods for treating vertigo and motion sickness using descarboethoxyloratadine” (priority 1997, published 2002):

Target: delayed rectifying K+ current (IKr) (Oryctolagus cuniculus, UniProt Q8WNY2)
Experiment: cell-based

With CCOC(=O)N1CCC(=C2c3ccc(Cl)cc3CCc3cccnc32)CC1 [Loratadine] the IC50 was roughly 9 µM.
